{"source": "patent US20230084099A1", "about": "(NATIONAL UNIVERSITY CORPORATION TOKAI NATIONAL HIGHER …, published 2023)", "binders": {"B1": {"name": "16-5 antibody (antibody, V domains shown)", "VH": "VKLQQSGGGLVQPGGSRKLSCAASGFTFSDYGMAWVRQAPGKGPEWVAFISSLAYTVYYADTVTGRFTISRENAKNTLFLEMSSLRSEDTAMYYCARFPVEAMDYWGQGTSVTVSS", "VL": "DIVMTQTPLSLPVSLGDQASISCRSSQSLVHSNGNTYLHWYLQKPGQSPKLLIYKVSNRFSGVPDRFSGSGSGTDFTLKISRVEAEDLGVYFCSQSTHFLTFGSGTKLEIK"}}, "target": "T1, human MEFLIN protein (human, UniProt O14498 19-428, limits assumed)", "T1 construct": "In the Western blot the protein and its fragments carried a C-terminal G196 tag and His tag and were expressed in HEK293 cells; also called hMEFLIN; ISLR", "T1 sequence (looked up)": "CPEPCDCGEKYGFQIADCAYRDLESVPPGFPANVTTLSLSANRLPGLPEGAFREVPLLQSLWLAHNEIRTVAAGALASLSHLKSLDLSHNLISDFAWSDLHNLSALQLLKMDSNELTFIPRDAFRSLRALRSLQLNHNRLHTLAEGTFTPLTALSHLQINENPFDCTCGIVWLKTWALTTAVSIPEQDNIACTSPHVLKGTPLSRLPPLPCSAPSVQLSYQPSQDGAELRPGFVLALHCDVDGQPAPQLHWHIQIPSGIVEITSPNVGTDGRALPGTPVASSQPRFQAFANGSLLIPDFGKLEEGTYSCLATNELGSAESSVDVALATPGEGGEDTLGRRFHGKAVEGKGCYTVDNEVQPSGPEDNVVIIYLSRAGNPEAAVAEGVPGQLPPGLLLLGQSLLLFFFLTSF", "experiment": "Western blotting on tagged human MEFLIN fragments", "experimental": "The human embryonic kidney (HEK293) cell line was allowed to transiently express pRP-CMV vector having an insert of DNA encoding the human MEFLIN protein or a fragment thereof by lipofection, and a cell lysate was prepared. […] SDS-PAGE was performed using the cell lysate, and the electrophoresed protein was transferred to a PVDF membrane. The PVDF membrane was reacted at ordinary temperature for 1 hour using 5% skimmed milk/PBS. The primary antibody used was a culture supernatant of each hybridoma clone diluted 50-fold with PBS. For a positive subject, an anti-G196 antibody was used as a primary antibody. The PVDF membrane was reacted overnight at 4° C. in the presence of the primary antibody. Then, the PVDF membrane was washed with 0.05% Tween/PBS. The secondary antibody used was an anti-rat or anti-mouse antibody-horseradish peroxidase (HRP) conjugate. The secondary antibody was diluted 1000-fold with PBS and reacted with the PVDF membrane at ordinary temperature for 45 minutes. After washing with 0.05% Tween/PBS, the HRP label on the antibody was allowed to emit light using ECL (GE Healthcare Japan Corp.), and an image was captured into a computer using a CCD imager (Las 4000, GE Healthcare Japan Corp.).", "note": "These are yes or no findings as the source states them, for the method shown. Some binding calls cover weakened binding; strength is not graded here."}
{"binder": "B1", "values": [{"measurement": "binding", "value": "binds"}]}
